The list is a part of this screen's results and no random one: it is rich in T/C values a quarter to a half above the control, in often repeated tests (any T/C) and in doses without a T/C. Other doses and runs of a compound stand elsewhere. T/C gives the treated animals as a percentage of the vehicle group. Some doses have a count of surviving animals in place of a T/C: the source files T/C as zero there, which appears to mark a toxic dose or a test without result, not a measured value. Some survivor counts are full or nearly so, which does not show that the dose was tolerated: the source hardly ever lists a survival T/C far under the control, and the zero likely stands for such cases as well. Counts of survivors are from the toxicity check (mostly the fifth day) where no day follows; animals may have died later. Schedules are NCI's codes, read here as Q, the interval in days (D) or hours (H), X, the number of doses. Some entries were tested several times; the values are given in rising order. Some schedules carry Z or #; the key to these is not given. Where survival is the endpoint, this PubChem deposit counts one and a half times the control or more as active, and values a quarter to a half above the control carry no call in these data; other NCI protocols may use other cut-offs. Some T/C values carry the count of animals alive at the toxicity check (mostly the fifth day); without a count, all were alive then.
Tested on: L1210 leukemia ip in BDF1 mice, survival T/C
Assay: NCI In Vivo Anticancer Drug Screen. Data for tumor model L1210 Leukemia (intraperitoneal) in B6D2F1 (BDF1) mice
Settings: T/C endpoint: mean survival time, higher T/C = longer survival
[1] = dose: 0.5 mg/kg/injection, schedule: Q01DX009 (ip), vehicle: saline
[2] = dose: 4.0 mg/kg/injection, schedule: Q01DX009 (ip), vehicle: saline
[3] = dose: 200.0 mg/kg/injection, schedule: Q04DX003 (ip), vehicle: saline
[4] = dose: 100.0 mg/kg/injection, schedule: Q01DX009 (ip), vehicle: Klucel (hydroxypropylcellulose) (HPC)
[5] = dose: 200.0 mg/kg/injection, schedule: Q01DX009 (ip), vehicle: Klucel (hydroxypropylcellulose) (HPC)
[6] = dose: 400.0 mg/kg/injection, schedule: Q01DX009 (ip), vehicle: Klucel (hydroxypropylcellulose) (HPC)

How did the T/C (dose: 0.25 mg/kg/injection, schedule: Q01DX009 (ip), vehicle: saline) turn out when `Nc1nc(N)c2cc(CNc3ccc(C(=O)NC(CC(=O)O)C(=O)O)cc3)ccc2n1` (stereo not given) was run?
Its T/C is 126 % of control.

And the T/C (dose: 0.28 mg/kg/injection, schedule: Q01DX009 (ip), vehicle: saline)?
Its T/C is 132, 140 [5 of 6 alive], 145 % of control.

And the T/C [1]?
Its T/C is 145 % of control.

And the T/C (dose: 0.56 mg/kg/injection, schedule: Q01DX009 (ip), vehicle: saline)?
The T/C was 147 % of control.

What about the T/C (dose: 1.0 mg/kg/injection, schedule: Q01DX005 (iv), vehicle: saline) of the same molecule?
Its T/C is 136 % of control.

What about the T/C (dose: 1.0 mg/kg/injection, schedule: Q## X003 (ip), vehicle: saline) of the same molecule?
Its T/C is 128 % of control.

And the T/C (dose: 1.0 mg/kg/injection, schedule: Q## X024 (ip), vehicle: saline)?
Its T/C is 140 % of control.

What about the T/C (dose: 2.0 mg/kg/injection, schedule: Q01DX005 (iv), vehicle: saline) of the same molecule?
The T/C was 146 % of control.

What about the T/C (dose: 2.0 mg/kg/injection, schedule: Q03HX016 (ip), vehicle: saline) of the same molecule?
Its T/C is 134 % of control.

And the T/C (dose: 2.0 mg/kg/injection, schedule: Q## X003 (ip), vehicle: saline)?
The T/C was 132 % of control.

And the T/C (dose: 2.5 mg/kg/injection, schedule: Q01DX009 (ip), vehicle: saline)?
Its T/C is 128 % of control.

What about the T/C (dose: 4.0 mg/kg/injection, schedule: Q01DX005 (iv), vehicle: saline) of the same molecule?
The T/C was 134 % of control.

What about the survivor count [2] of the same molecule?
The survivor count was 8 of 10.

And the T/C (dose: 4.0 mg/kg/injection, schedule: Q03HX016 (ip), vehicle: saline)?
The T/C was 146 % of control.

What about the T/C (dose: 4.0 mg/kg/injection, schedule: Q08DX002 (ip), vehicle: saline) of the same molecule?
The T/C was 127 % of control.

And the T/C (dose: 4.0 mg/kg/injection, schedule: Q## X008 (ip), vehicle: saline)?
Its T/C is 129 % of control [9 of 10 alive].

What about the T/C (dose: 5.0 mg/kg/injection, schedule: Q01DX001 (ip), vehicle: saline) of the same molecule?
Its T/C is 134 % of control.

What about the T/C (dose: 6.25 mg/kg/injection, schedule: Q01DX001 (ip), vehicle: saline) of the same molecule?
The T/C was 132 % of control.

What about the T/C (dose: 8.0 mg/kg/injection, schedule: Q01DX001 (sc), vehicle: saline) of the same molecule?
Its T/C is 132 % of control.

And the survivor count (dose: 8.0 mg/kg/injection, schedule: Q01DX005 (iv), vehicle: saline)?
Its survivor count is 9 of 10.

And the T/C (dose: 8.0 mg/kg/injection, schedule: Q08DX002 (ip), vehicle: saline)?
The T/C was 141 % of control.

What about the T/C (dose: 8.0 mg/kg/injection, schedule: Q## X008 (ip), vehicle: saline) of the same molecule?
Its T/C is 134 % of control.

And the T/C (dose: 10.0 mg/kg/injection, schedule: Q01DX001 (ip), vehicle: saline)?
The T/C was 147 % of control.

And the survivor count (dose: 10.0 mg/kg/injection, schedule: Q01DX009 (ip), vehicle: saline)?
The survivor count was 5 of 6.

What about the T/C (dose: 12.5 mg/kg/injection, schedule: Q01DX001 (ip), vehicle: saline) of the same molecule?
Its T/C is 137 % of control.

And the T/C (dose: 16.0 mg/kg/injection, schedule: Q01DX001 (ip), vehicle: saline)?
The T/C was 145 % of control.

What about the T/C (dose: 16.0 mg/kg/injection, schedule: Q01DX001 (sc), vehicle: saline) of the same molecule?
The T/C was 137 % of control.

What about the T/C (dose: 16.0 mg/kg/injection, schedule: Q## X003 (ip), vehicle: saline) of the same molecule?
Its T/C is 130 % of control.

And the T/C (dose: 16.0 mg/kg/injection, schedule: Q## X008 (ip), vehicle: saline)?
The T/C was 147 % of control.

What about the survivor count (dose: 18.0 mg/kg/injection, schedule: Q01DX009 (ip), vehicle: saline) of the same molecule?
Its survivor count is 5 of 6 and 6 of 6.

What about the survivor count (dose: 20.0 mg/kg/injection, schedule: Q01DX009 (ip), vehicle: saline) of the same molecule?
The survivor count was 4 of 6.

What about the T/C (dose: 25.0 mg/kg/injection, schedule: Q01DX001 (ip), vehicle: saline) of the same molecule?
The T/C was 147 % of control.

What about the T/C (dose: 32.0 mg/kg/injection, schedule: Q01DX001 (sc), vehicle: saline) of the same molecule?
Its T/C is 134 % of control.

What about the survivor count (dose: 40.0 mg/kg/injection, schedule: Q01DX001 (ip), vehicle: saline) of the same molecule?
Its survivor count is 3 of 4.

What about the survivor count (dose: 50.0 mg/kg/injection, schedule: Q01DX001 (ip), vehicle: saline) of the same molecule?
The survivor count was 6 of 6.

And the survivor count (dose: 80.0 mg/kg/injection, schedule: Q01DX001 (ip), vehicle: saline)?
Its survivor count is 3 of 4.

What about the survivor count (dose: 100.0 mg/kg/injection, schedule: Q01DX001 (ip), vehicle: saline) of the same molecule?
Its survivor count is 4 of 6.

What about the survivor count (dose: 200.0 mg/kg/injection, schedule: Q01DX001 (ip), vehicle: saline) of the same molecule?
The survivor count was 3 of 6.

And the survivor count (dose: 400.0 mg/kg/injection, schedule: Q01DX001 (ip), vehicle: saline)?
The survivor count was 3 of 6.

Which survivor count (dose: 35.0 mg/kg/injection, schedule: Q01DX009 (ip), vehicle: saline) does the source give for `c1ccc2c[n+]3ccccc3cc2c1` here?
Its survivor count is 2 of 6.

And the survivor count (dose: 55.0 mg/kg/injection, schedule: Q01DX009 (ip), vehicle: saline)?
Its survivor count is 0 of 6.

What about the survivor count (dose: 80.0 mg/kg/injection, schedule: Q01DX009 (ip), vehicle: saline) of the same molecule?
The survivor count was 1 of 6.

And the survivor count (dose: 100.0 mg/kg/injection, schedule: Q04DX003 (ip), vehicle: saline)?
The survivor count was 0 of 6.

And the survivor count [3]?
Its survivor count is 0 of 6.

And the survivor count (dose: 400.0 mg/kg/injection, schedule: Q04DX003 (ip), vehicle: saline)?
The survivor count was 0 of 6.

`O=C(O)C(O)COc1ccc(Cl)cc1Cl` (stereo not given) was tested. Which survivor count [3] did it give?
The survivor count was 3 of 6.

With `O=C(CC(O)(C(F)(F)Cl)C(F)(F)Cl)c1ccco1` as the molecule, how does the survivor count (dose: 400.0 mg/kg/injection, schedule: Q04DX003 (ip), vehicle: saline with Tween-80) read?
The survivor count was 0 of 6.

For `COc1ccc(NC(=O)Nc2cc(Cl)ccc2OC)cc1`, which survivor count [4] is on record?
The survivor count was 6 of 6.

What about the survivor count [5] of the same molecule?
Its survivor count is 6 of 6.

What about the survivor count [6] of the same molecule?
Its survivor count is 6 of 6.

For `CCc1c(CNc2ccc(C(=O)NC(CC(=O)O)C(=O)O)cc2)ccc2nc(N)nc(N)c12` (stereo not given), which T/C (dose: 0.12 mg/kg/injection, schedule: Q01DX009 (ip), vehicle: saline) is on record?
The T/C was 137 and 143 % of control.

And the T/C [1]?
The T/C was 141 % of control.

And the T/C (dose: 0.8 mg/kg/injection, schedule: Q01DX009 (ip), vehicle: saline)?
Its T/C is 137 % of control.

What about the T/C (dose: 1.0 mg/kg/injection, schedule: Q04DX003 (ip), vehicle: saline) of the same molecule?
Its T/C is 128 % of control [5 of 6 alive].

And the survivor count (dose: 2.0 mg/kg/injection, schedule: Q01DX009 (ip), vehicle: saline)?
The survivor count was 6 of 6.

And the T/C (dose: 2.0 mg/kg/injection, schedule: Q04DX003 (ip), vehicle: saline)?
Its T/C is 148 % of control.

And the survivor count [2]?
Its survivor count is 6 of 6.

And the survivor count (dose: 8.0 mg/kg/injection, schedule: Q01DX009 (ip), vehicle: saline)?
Its survivor count is 5 of 6.

And the survivor count (dose: 16.0 mg/kg/injection, schedule: Q01DX009 (ip), vehicle: saline)?
The survivor count was 2 of 6.

What does the source list for `CC12CCC(C1)C(C)(C)C2[N+]#N` (stereo not given)?
survivor count (dose: 150.0 mg/kg/injection, schedule: Q01DX001 (ip), vehicle: saline): 0 of 6; survivor count (dose: 300.0 mg/kg/injection, schedule: Q01DX001 (ip), vehicle: saline): 0 of 6

For `CC(=O)OCC(OC(C)=O)C1(O)CCC2C3CCC4=CC(=O)CCC4(C)C3CCC21C` (stereo not given), which survivor count (dose: 50.0 mg/kg/injection, schedule: Q01DX009 (ip), vehicle: Klucel (hydroxypropylcellulose) (HPC)) is on record?
Its survivor count is 3 of 3.

And the survivor count [5]?
The survivor count was 3 of 3.

Which survivor count (dose: 100.0 mg/kg/injection, schedule: Q01DX Z (ip), vehicle: carboxymethylcellulose (CMC)) does the source give for `Nc1nc(N)c(CCCCc2ccccc2)c(N)n1` here?
The survivor count was 1 of 6.

And the survivor count [5]?
Its survivor count is 0 of 3.

And the survivor count (dose: 200.0 mg/kg/injection, schedule: Q01DX Z (ip), vehicle: carboxymethylcellulose (CMC))?
Its survivor count is 0 of 6.

And the survivor count (dose: 400.0 mg/kg/injection, schedule: Q01DX Z (ip), vehicle: carboxymethylcellulose (CMC))?
The survivor count was 0 of 6.

With `CN1CCCC1c1cccc([N+](=O)[O-])c1` (stereo not given) as the molecule, how does the survivor count (dose: 200.0 mg/kg/injection, schedule: Q01DX001 (ip), vehicle: acetone) read?
Its survivor count is 0 of 6.

And the survivor count (dose: 400.0 mg/kg/injection, schedule: Q01DX001 (ip), vehicle: acetone)?
Its survivor count is 0 of 6.

For `COc1ccc(OC)c(CCc2cc(OC)ccc2OC)c1`, which survivor count (dose: 100.0 mg/kg/injection, schedule: Q04DX003 (ip), vehicle: other) is on record?
Its survivor count is 6 of 6.

What about the survivor count (dose: 200.0 mg/kg/injection, schedule: Q04DX003 (ip), vehicle: other) of the same molecule?
The survivor count was 6 of 6.

And the survivor count (dose: 400.0 mg/kg/injection, schedule: Q04DX003 (ip), vehicle: other)?
The survivor count was 6 of 6.

Which survivor count [6] does the source give for `N/N=C/C=N/Nc1cnccn1` here?
Its survivor count is 0 of 6.

For `OCCOc1nc(Cl)nc(Cl)c1Cl` (tested in a mixture with another compound), which survivor count [4] is on record?
The survivor count was 3 of 3.

And the survivor count [5]?
The survivor count was 2 of 3.
